In US11124553B2, “TDP-43 mitochondrial localization inhibitor for the treatment of neurogenerative disease” (Case Western Reserve University, priority 2016, dated 2021):
At least one peptide structure holds a part that was inferred or is arguable (an end, a ring closure or a residue). Ends that are not written are not given here.

By UniProt entry, the sequences of proteins in these tests, tags left out.
UniProt Q13148, whole entry: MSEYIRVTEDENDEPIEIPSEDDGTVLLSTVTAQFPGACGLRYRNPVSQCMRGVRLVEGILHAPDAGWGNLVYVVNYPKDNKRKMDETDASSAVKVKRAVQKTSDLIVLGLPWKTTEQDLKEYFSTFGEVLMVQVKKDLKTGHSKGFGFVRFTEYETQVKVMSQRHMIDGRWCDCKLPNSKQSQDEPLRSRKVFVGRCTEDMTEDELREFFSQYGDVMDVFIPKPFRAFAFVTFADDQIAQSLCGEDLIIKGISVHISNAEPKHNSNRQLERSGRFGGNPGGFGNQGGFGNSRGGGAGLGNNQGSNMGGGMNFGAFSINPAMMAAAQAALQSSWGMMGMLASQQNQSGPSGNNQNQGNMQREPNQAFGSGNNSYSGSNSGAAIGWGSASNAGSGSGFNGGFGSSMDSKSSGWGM

Columns and labels:
TDP-43 [1] = biological target: T1, TDP-43 (Rattus norvegicus, UniProt A0A8I6GLU8); assay: Immunoblot of TDP-43 in pure mitochondria isolated from rat primary cortical neurons; assay type: cell-based; conditions: DIV 12, 1 μM peptide for 24 hours
T1 construct: endogenous in cells; host or cells: rat primary cortical neurons (E18 Sprague Dawley, DIV 12)

TDP-43 [2] = biological target: T2, TDP-43 (Homo sapiens, UniProt Q13148); assay: Immunoblot of TDP-43 in pure mitochondria isolated from HEK293 cells; assay type: cell-based; conditions: for mitochondrial TDP-43 in HEK293 cells: 1 μM peptide for 24 hours
T2 construct: endogenous in cells; host or cells: HEK293 (HEK-293T) cells

[3] = biological target: T3, Flag tagged human rTDP-43 (Homo sapiens, UniProt Q13148); assay: Mitochondrial import assay in vitro with rTDP-43 and isolated mouse brain mitochondria; assay type: biochemical; conditions: mitochondria pre-/co-treated with 5 μM peptide
T3 construct: Flag; made in house; host or cells: rabbit reticulocyte coupled transcription/translation system (pCMVTnT constructs)

Sequence	mitochondrial TDP-43 in primary neurons (TDP-43 [1])	mitochondrial TDP-43 in HEK293 cells (TDP-43 [2])	effect on cytosolic, nuclear or total TDP-43 (TDP-43 [2]; FIGS. 3C-F)	rTDP-43 import [3]
YGRKKRRQRRRAQFPGACGL [PM1]	decreased	decreased	no significant effect	substantially suppressed
YGRKKRRQRRRSKGFGFVRF [PM3]	decreased	decreased	–	substantially suppressed
